In patent publication US12667122B2, “Taste-modulation of cooling agents in beverages” (priority 2019, dated 2026):
Peptide text beside a SMILES is read from it.

Assays:
[1] = Beverage swallowing test: duration of cooling in throat and chest and adverse taste ranking; type: in vivo, human; parameters: key: 0 (no adverse taste); 1 (mild taste); 2 (moderate taste); 3 (adverse taste); settings: for Adverse taste (scale 0-3): 20 mg in 50 mL (0.4 mg/mL)
Description: DIPA compounds dissolved in water have an unpleasant, bitter, and metallic taste. The goal of the experiments was to find an adjunct that would make the DIPA beverage palatable. The anatomic sites for bitterness (adverse taste) are primarily on the dorsal surface of the posterior one-third of the tongue. The coolness and refreshment areas are on the hypopharynx and the upper one-third of the esophagus (FIG. 1). These are two different anatomic sites. Sensations of coolness from the oral cavity and oropharynx are not the primary targets. The esophagus is in the center of the thorax. When its lumen feels “cool,” this is like turning on the central air conditioner for the body. The goal of the beverage is to turn on this central air conditioning for at least 30 min and preferably longer without adverse tastes in the oral cavity. That is, the goal is to produce cool in the center of the chest but without bitter taste. A standard procedure was set. The cooling agent at various concentrations was made up to 50 mL with a liquid in a plastic cup (Flak Tek, Inc. South Carolina), beaker, whiskey glass, or bottle. For example, the final concentration of the coolant in the test solution may range from 0.1 to 0.5 mg/mL. The temperature of the liquid was measured and then swallowed. For example, 50 mL could be swallowed in five gulps or sipped. The duration of cooling in the throat and chest was recorded at various intervals until the cooling disappeared. The ranking of adverse taste was on a scale of 0 (no adverse taste), 1 (mild taste), 2 (moderate taste), or 3 (adverse taste). The value was for at least three trials per beverage.
Examples of test procedures and results. The usual method was to prepare a 2-mL vial containing a DIPA dissolved in water. The contents of the vial were added to beverages such as beer, soda drinks, fruit juice, coffee, tea, or water. A taste-modulating adjunct such as a sweetener can be in the 2-mL vial or present in the beverage. The drink is gulped at about 5 mL per swallow. The time and temperatures are noted. The onset of coolness in the center of the upper chest usually occurs within 3 min. For active compounds, this effect was pleasant and, depending on dose, could last for 10 minutes, an hour, or more. Gulping the liquid was important. When held in the mouth, the drink is cool and may have taste, but cooling in the center of the chest is reduced. Thus, sipping is not the correct method of drinking. Using these methods, a bottle of beer (e.g., ˜330 mL containing 33 mg of DIPA-1-9), if drank in a leisurely setting for one hour, can provide comfortable body cooling for 3 hr. Similarly, a smaller bottle of carbonated soda water (e.g., 200 mL), containing 15 mg of DIPA-1-6 produced immediate cooling relief for 30 min for individuals, for example, taking a break from playing tennis in the heat. For pharmaceutical uses, a tinted bottle with 20 mg of DIPA-1-9 in 50 mL of water with Splenda's Monk Fruit dissolved in it would be palatable and relieve the discomforts of indigestion.

[2] = Sweeteners as taste-modulators of DIPA; type: in vivo, human; parameters: key to Ranking as taste-modulator of DIPA: excellent, when off-tastes are barely detectable; very good, when off-tastes are slightly present but not considered objectionable; good, when off-tastes are present but tolerated; not effective, where there is inadequate modulation of taste; poor, when the tastes are aversive; settings: for Effect on the off-tastes of DIPA (in words): artificial sweeteners; for Ranking as taste-modulator of DIPA: sweetener prepared at 100 mL as in the table, solutions swallowed at 15 to 50 mL per unit session

With `CCCCCCCCCP(=O)(C(C)C)C(C)C` [DIPA-1-9, 1-Diisopropyl-phosphinoyl-nonane] the “Adverse Taste” value ([1]; 0.4 mg/L, apple juice (Martinelli, Mott's), 21 °C) was 0, the “Adverse Taste” value ([1]; 0.4 mg/L, grape juice (Welch Grape), 20 °C) was 0 and the “Adverse Taste” value ([1]; 0.4 mg/L, guarana juice soda (Guarana Antarctica), 10 °C) was 0. For the same compound, the “Adverse Taste” value ([1]; 0.4 mg/L, orange juice (fresh-squeezed), 8 °C) was 2, the “Adverse Taste” value ([1]; 0.4 mg/L, sweetened soda (Coca-Cola), 7 °C) was 3 and the “Adverse Taste” value ([1]; 0.4 mg/L, wine (Moscato d'Asti), 8 °C) was 0. The “Adverse Taste” value ([1]; 0.4 mg/mL, hot cappuccino drink (3 Coracoes, Brazil), 70 °C) was 2, the “Adverse Taste” value ([1]; 0.4 mg/mL, hot coffee + herbal sweetener (117 + Stevia extracts), 75 °C) was 1 and the “Adverse Taste” value ([1]; 0.4 mg/mL, hot coffee cream/sugar (117, Nescafe), 65 °C) was 1. The “Adverse Taste” value ([1]; 0.4 mg/mL, hot coffee-no cream or sugar (117, Nescafe), 62 °C) was 1, the “Adverse Taste” value ([1]; 0.4 mg/mL, hot water + monk fruit (Splenda monk fruit), 50 °C) was 0 and the “Adverse Taste” value ([1]; 0.4 mg/mL, hot water + monk fruit (Splenda monk fruit), 70 °C) was 0. The “Adverse Taste” value ([1]; 0.4 mg/mL, iced cold cappuccino (Starbuck's frappaccino), 8 °C) was 2, the “Adverse Taste” value ([1]; 0.4 mg/mL, red tea (Peach-Ceylon, no sweetener), 46 °C) was 2 and the “Adverse Taste” value ([1]; 0.4 mg/mL, sweetened tea (Ito En + 10% sucrose), 10 °C) was 0. For the same compound, the “Adverse Taste” value ([1]; 0.4 mg/mL, sweetened tea (Ito En + Truvia or Monk's Fruit), 10 °C) was 0, the “Adverse Taste” value ([1]; 0.4 mg/mL, unsweetened green tea (Ito En), 10 °C) was 3 and the “Adverse taste (scale 0-3)” value ([1]; carbonated water (Perrier, La Croix), 8 °C) was 1. The “Adverse taste (scale 0-3)” value ([1]; water (Crystal Geyser), 10 °C) was 2, the “Adverse taste (scale 0-3)” value ([1]; water (Crystal Geyser), 25 °C) was 3 and the “Adverse taste (scale 0-3)” value ([1]; water (Crystal Geyser), 74 °C) was 3. For the same compound, the “Adverse taste (scale 0-3)” value ([1]; water + herbal sweetener (+Stevia leaf), 8 °C) was 0, the “Adverse taste (scale 0-3)” value ([1]; water + herbal sweetener (+Stevia leaf), 22 °C) was 0 and the “Adverse taste (scale 0-3)” value ([1]; water + herbal sweetener (+Stevia leaf), 72 °C) was 0. For the same compound, the “Adverse taste (scale 0-3)” value ([1]; water + synthetic sweetener (Neotame at 0.2 mg/mL), 10 °C) was 0, the “Adverse Taste” value ([1]; 50 mL beverage, 0.2 mg/mL + Stevia, 20 °C) was 0 and the “Adverse Taste” value ([1]; 50 mL beverage, 0.4 mg/mL + Stevia, 20 °C) was 0. For the same compound, the “Adverse Taste” value ([1]; 50 mL beverage, 0.4 mg/mL + Sucrose (10%), 20 °C) was 0, the “Adverse Taste” value ([1]; 50 mL beverage, 0.8 mg/mL + Stevia, 20 °C) was 1 and the “Adverse Taste” value ([1]; 50 mL beverage, 0.8 mg/mL + Sucrose (10%), 20 °C) was 1. The “Adverse Taste” value ([1]; 50 mL beverage, 0.8 mg/mL + Sucrose (15%), 20 °C) was 0, the “Adverse Taste” value ([1]; Sake (Japanese rice wine), 10 °C) was 0 and the “Adverse Taste” value ([1]; beer (Heineken), 7 °C) was 0. The “Adverse Taste” value ([1]; ginger ale (Canada Dry), 11 °C) was 1, the “Adverse Taste” value ([1]; ginger beer, juice (Q beer, Suja), 9 °C) was 0 and the “Adverse Taste” value ([1]; non-alcoholic beer (Heineken 00), 7 °C) was 0. The “Adverse Taste” value ([1]; tonic water with quinine (Schweppes), 7 °C) was 0 and the “Adverse Taste” value ([1]; wheat ale (Blue Moon), 9 °C) was 0.

With `CC1=CC(=O)[N-]S(=O)(=O)O1.[K+]` [acesulfame-K] the “Effect on the off-tastes of DIPA (in words)” value (“Effect on the off-tastes” for short) [2] was “ineffective” and the “Ranking as taste-modulator of DIPA” value [2] was “poor”.

In the case of `COC(=O)[C@H](Cc1ccccc1)NC(=O)[C@@H](N)CC(=O)O` [aspartame] (HELM PEPTIDE1{D.F.[CO[*:1]]}$$$$V2.0), the “Effect on the off-tastes” value [2] is reported as “inhibited the off-tastes”.

In the case of `COC(=O)[C@H](Cc1ccccc1)NC(=O)[C@H](CC(=O)O)NCCC(C)(C)C` [neotame], the “Effect on the off-tastes” value [2] is reported as “completely masked” and the “Ranking as taste-modulator of DIPA” value [2] is reported as “excellent for”.

With `O=C1NS(=O)(=O)c2ccccc21` [saccharin] the “Effect on the off-tastes” value [2] was “ineffective” and the “Ranking as taste-modulator of DIPA” value [2] was “poor”.

For `OC[C@H]1O[C@H](O[C@]2(CCl)O[C@H](CCl)[C@@H](O)[C@@H]2O)[C@H](O)[C@@H](O)[C@H]1Cl` [sucralose], the “Effect on the off-tastes” value [2] was “not very effective” and the “Ranking as taste-modulator of DIPA” value [2] was “not effective”.

In the case of `OC[C@H]1O[C@@](CO)(O[C@H]2O[C@H](CO)[C@@H](O)[C@H](O)[C@H]2O)[C@@H](O)[C@@H]1O` [sucrose], the “Ranking as taste-modulator of DIPA” value [2] is reported as “very good”.
